PubChem BioAssay AID652259, Drosophila RNAi Screening Center | 2013
The screen tested about 22,000 reagents; below is an unselected part of those that have a named target and a result. In the full data, 233 (1.1%) are marked active. 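Light values are raw, unnormalised plate reads; the ratio scores behind the reporter calls were not deposited.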 Reagents against one gene are numbered here. Names joined by + are all predicted targets of the reagent. Not given: the amount of reagent, the time to read-out, the dose of the treatment.

- Assay: 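Genome-wide hunt for genes that control Wingless pathway activity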 (primary screen)
- System: Drosophila clone 8 imaginal disc epithelial cells
- Reagent: long dsRNA against Drosophila genes
- Challenge: pathway stimulated by co-transfected Wingless expression plasmid
- Detection: 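Dual luciferase reads per well after Wingless plasmid stimulation: reporter firefly light and Renilla control light; activity is firefly divided by Renilla, a ratio not deposited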
- Scale: firefly reporter light: higher = more Wg reporter light, before normalisation; Renilla control light: higher = more transfected or surviving cells
- Call rule: 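a knock-down is a candidate when at least two out of four statistical tests show it departing from its plate mean; one test alone signals a weak candidate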
- Meaning of the calls: active = candidate regulator (raises or lowers reporter); inactive = not a candidate

gene knocked down	reagent no.	reporter change call, replicate 1	firefly reporter light, replicate 1	firefly reporter light, replicate 2	Renilla control light, replicate 1	Renilla control light, replicate 2	activity call
Atg10 + CG12822	1		2466	5858	170	3116	inactive
CG13043	1		5221		2880		inactive
BckdhA (Branched chain keto acid dehydrogenase E1 subunit alpha)	1		10416		2311		inactive
Sema2b (Semaphorin 2b)	1		18081		10537		inactive
Sema2b (Semaphorin 2b)	2		23898		10640		inactive
Sema2b (Semaphorin 2b)	3		9415		4505		inactive
mus201 + Chrac-14	1		2712	8754	651	2877	inactive
mus201 + Chrac-14	2		1632	6184	384	2450	inactive
CG5323	1		9784		3264		inactive
CG5149	1		8612		4052		inactive
AGO3 (Argonaute 3)	1		2.91e5	2.80e5	1.47e5	1.01e5	inactive
side-IV + asRNA:CR17025	1		17923		3552		inactive
side-IV + asRNA:CR17025	2		16492		4245		inactive
CG13996	1		2513	6905	736	2485	inactive
CG9837	1		14848		4599		inactive
Ir67a (Ionotropic receptor 67a)	1		4352		2084		inactive
S-Lap3 (Sperm-Leucylaminopeptidase 3)	1		1971		1059		inactive
CG30054	1		26172		16541		inactive
dmrt99B (doublesex-Mab related 99B)	1		6274		614		inactive
Mnt	1		2769	9313	844	1386	inactive
Mnt	2		19168		10841		inactive
CG3919	1		7530		3808		inactive
RpL14 (Ribosomal protein L14)	1		2397	6656	912	1817	inactive
CG31068	1		3680		1767		inactive
Mur18B (Mucin related 18B)	1		2013	7368	729	2448	inactive
Wnk (Wnk kinase)	1	Wg reporter activity raised	15960		1911		active

Reformatted: entries from further up
{"gene knocked down":"CG30054","reagent no.":1,"firefly reporter light, replicate 1":26172,"Renilla control light, replicate 1":16541,"activity call":"inactive"}
{"gene knocked down":"dmrt99B (doublesex-Mab related 99B)","reagent no.":1,"firefly reporter light, replicate 1":6274,"Renilla control light, replicate 1":614,"activity call":"inactive"}
{"gene knocked down":"Mnt","reagent no.":1,"firefly reporter light, replicate 1":2769,"firefly reporter light, replicate 2":9313,"Renilla control light, replicate 1":844,"Renilla control light, replicate 2":1386,"activity call":"inactive"}
{"gene knocked down":"Mnt","reagent no.":2,"firefly reporter light, replicate 1":19168,"Renilla control light, replicate 1":10841,"activity call":"inactive"}
{"gene knocked down":"CG3919","reagent no.":1,"firefly reporter light, replicate 1":7530,"Renilla control light, replicate 1":3808,"activity call":"inactive"}
{"gene knocked down":"RpL14 (Ribosomal protein L14)","reagent no.":1,"firefly reporter light, replicate 1":2397,"firefly reporter light, replicate 2":6656,"Renilla control light, replicate 1":912,"Renilla control light, replicate 2":1817,"activity call":"inactive"}
{"gene knocked down":"CG31068","reagent no.":1,"firefly reporter light, replicate 1":3680,"Renilla control light, replicate 1":1767,"activity call":"inactive"}
{"gene knocked down":"Mur18B (Mucin related 18B)","reagent no.":1,"firefly reporter light, replicate 1":2013,"firefly reporter light, replicate 2":7368,"Renilla control light, replicate 1":729,"Renilla control light, replicate 2":2448,"activity call":"inactive"}

The listing continues:
gene knocked down	reagent no.	reporter change call, replicate 1	firefly reporter light, replicate 1	firefly reporter light, replicate 2	Renilla control light, replicate 1	Renilla control light, replicate 2	activity call
ksh (kish)	1		17949		9008		inactive
mad2	1		1584	7004	1157	1994	inactive
CG31917 + Tfb5	1	Wg reporter activity raised	7668	15522	832	2284	inactive
CG31917 + Tfb5	2		2650	5869	484	1196	inactive
CG8089	1		6620		2288		inactive
dany (distal antenna-young)	1		3154	9234	739	2439	inactive
E(spl)m8-HLH (Enhancer of split m8, helix-loop-helix)	1		27185		19712		inactive
CG33969	1		11881		4466		inactive
CecA2 (Cecropin A2)	1		4384		2249		inactive
toc (toucan)	1		21300		9432		inactive
toc (toucan)	2		18064		8073		inactive
toc (toucan)	3		9559		3408		inactive
Cox10 (Cytochrome c oxidase assembly factor 10)	1		6752		2285		inactive
CG30357	1		4.71e5	5.26e5	1.29e5	1.03e5	inactive
CG7213	1		2320	8785	1511	3584	inactive
MtnB (Metallothionein B)	1		7.28e5	7.89e5	3.63e5	93193	inactive
Oatp26F (Organic anion transporting polypeptide 26F)	1		1654	5623	689	1228	inactive
Oatp26F (Organic anion transporting polypeptide 26F)	2		3060	5811	754	1152	inactive
Oatp26F (Organic anion transporting polypeptide 26F)	3		2208	6842	871	1195	inactive
SPoCk (Secretory Pathway Calcium atpase)	1		11716		4307		inactive
SPoCk (Secretory Pathway Calcium atpase)	2		10705		3371		inactive
SPoCk (Secretory Pathway Calcium atpase)	3		11589		4579		inactive
SPoCk (Secretory Pathway Calcium atpase)	4		14322		3943		inactive
